# Data as given in paper PMC11494200.
# Biological target: NUMB-FLAG (NUMB^WT-3FLAG, NUMB isoform 2; plasmid NUMB2-3FLAG-M107K) (human)
# Assay: co-IP; HEK293 lysate (1% TritonX-100, 10 mM HEPES pH 7.4, 142.5 mM KCl, 5 mM MgCl2, 1 mM EDTA, 10% glycerol); FLAG tag antibody and Protein G Sepharose beads overnight at 4 °C; immunoblot
binder,measurement,value
"ABCG2-eGFP (plasmid ABCG2-eGFP-pcDNA3.1 + C-eGFP) (protein, UniProt Q9UNQ0 1-655) MSSSNVEVFIPVSQGNTNGFPATASNDLKAFTEGAVLSFHNICYRVKLKSGFLPCRKPVEKEILSNINGIMKPGLNAILGPTGGGKSSLLDVLAARKDPSGLSGDVLINGAPRPANFKCNSGYVVQDDVVMGTLTVRENLQFSAALRLATTMTNHEKNERINRVIQELGLDKVADSKVGTQFIRGVSGGERKRTSIGMELITDPSILFLDEPTTGLDSSTANAVLLLLKRMSKQGRTIIFSIHQPRYSIFKLFDSLTLLASGRLMFHGPAQEALGYFESAGYHCEAYNNPADFFLDIINGDSTAVALNREEDFKATEIIEPSKQDKPLIEKLAEIYVNSSFYKETKAELHQLSGGEKKKKITVFKEISYTTSFCHQLRWVSKRSFKNLLGNPQASIAQIIVTVVLGLVIGAIYFGLKNDSTGIQNRAGVLFFLTTNQCFSSVSAVELFVVEKKLFIHEYISGYYRVSSYFLGKLLSDLLPMRMLPSIIFTCIVYFMLGLKPKADAFFVMMFTLMMVAYSASSMALAIAAGQSVVSVATLLMTICFVFMMIFSGLLVNLTTIASWLSWLQYFSIPRYGFTALQHNEFLGQNFCPGLNATGNNPCNYATCTGEEYLVKQGIDLSPWGLWKNHVALACMIVIFLTIAYLKLLFLKKYS",binding,binds

# These are yes or no findings as the source states them, for the method shown. Binding seen in cells or lysates may run through a third protein. Binding calls can cover weak binding; strength is not graded here. Where a sequence is shown, tags or fusion partners need not be part of it.
